Source: paper PMC12285200
These are yes or no findings as the source states them, for the method shown. For some assays here: In cells and extracts the contact can be indirect. Some entries that bind do so weakly or less than the wild type. Tags and fused reporters may be left off the sequences shown.

Chains of the proteins cited; added tags and fusions are not shown.
UniProt O14746: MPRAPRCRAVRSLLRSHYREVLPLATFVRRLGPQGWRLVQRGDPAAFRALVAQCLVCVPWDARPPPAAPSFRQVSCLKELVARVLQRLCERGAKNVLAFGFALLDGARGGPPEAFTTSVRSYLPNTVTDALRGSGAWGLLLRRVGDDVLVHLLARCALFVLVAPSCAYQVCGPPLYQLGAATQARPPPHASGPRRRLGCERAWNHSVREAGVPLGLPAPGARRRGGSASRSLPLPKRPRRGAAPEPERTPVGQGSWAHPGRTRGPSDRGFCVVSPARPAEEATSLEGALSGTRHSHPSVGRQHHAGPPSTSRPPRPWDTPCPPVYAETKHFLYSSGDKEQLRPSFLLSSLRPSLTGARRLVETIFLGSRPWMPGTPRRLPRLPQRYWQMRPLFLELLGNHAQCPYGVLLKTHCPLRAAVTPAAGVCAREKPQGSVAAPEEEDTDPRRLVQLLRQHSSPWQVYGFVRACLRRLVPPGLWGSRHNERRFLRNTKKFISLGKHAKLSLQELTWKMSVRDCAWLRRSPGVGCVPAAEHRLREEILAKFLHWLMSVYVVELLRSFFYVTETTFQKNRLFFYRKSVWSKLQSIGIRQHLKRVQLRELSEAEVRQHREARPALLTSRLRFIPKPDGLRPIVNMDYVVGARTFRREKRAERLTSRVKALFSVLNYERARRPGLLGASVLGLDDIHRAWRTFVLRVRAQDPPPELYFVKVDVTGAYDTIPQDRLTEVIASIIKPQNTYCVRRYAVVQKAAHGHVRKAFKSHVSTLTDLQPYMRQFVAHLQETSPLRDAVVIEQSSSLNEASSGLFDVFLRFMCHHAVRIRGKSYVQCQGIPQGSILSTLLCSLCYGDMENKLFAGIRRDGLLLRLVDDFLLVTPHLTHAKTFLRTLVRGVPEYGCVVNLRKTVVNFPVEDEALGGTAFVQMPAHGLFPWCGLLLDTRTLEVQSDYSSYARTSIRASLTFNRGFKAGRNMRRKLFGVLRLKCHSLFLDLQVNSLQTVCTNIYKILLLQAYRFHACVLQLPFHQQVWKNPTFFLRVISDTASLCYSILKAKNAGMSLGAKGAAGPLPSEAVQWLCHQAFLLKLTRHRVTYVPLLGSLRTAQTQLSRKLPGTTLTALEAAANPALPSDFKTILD

Key:
[1] = target: T1, HA-FLAG-tagged ZC3H15 (Zinc finger CCCH domain-containing protein 15) (human) (UniProt Q8WU90); experiment: IP-TRAP (immunoprecipitation, then telomerase activity by q-TRAP); cell lysates incubated with anti-FLAG agarose beads at 4 °C for 4 h; eluates used for q-TRAP; for FLAG-TPP1 in HEK293T with GST-GFP or GST-ZC3H15 co-expressed, 48 h
T1 sequence: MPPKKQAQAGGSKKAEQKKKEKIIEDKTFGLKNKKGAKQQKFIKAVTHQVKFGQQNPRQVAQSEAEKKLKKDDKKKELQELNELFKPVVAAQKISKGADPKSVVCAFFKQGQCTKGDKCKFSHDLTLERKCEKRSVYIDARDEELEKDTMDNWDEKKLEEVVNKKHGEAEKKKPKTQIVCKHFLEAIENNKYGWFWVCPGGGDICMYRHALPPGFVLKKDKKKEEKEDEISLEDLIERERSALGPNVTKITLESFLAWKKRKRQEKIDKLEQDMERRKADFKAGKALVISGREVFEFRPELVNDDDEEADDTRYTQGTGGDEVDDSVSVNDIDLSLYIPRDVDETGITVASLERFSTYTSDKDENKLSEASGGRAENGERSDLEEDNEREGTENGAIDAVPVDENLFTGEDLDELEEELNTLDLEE

[2] = target: T2, GST-tagged ZC3H15 full length (human), Q8WU90; experiment: pull-down; GST pull-down from HEK293T cells co-expressing a FLAG-tagged and a GST-tagged protein; NETN lysis buffer, beads 4 °C 2 to 4 h, three washes; western blot; conditions: remark: other sources report otherwise
T2 chain: T1 sequence

In the case of “telomerase (from UniProt O14746 1-1132) (complex)”, the binding [1] is reported as “binds”.

B1: HA-FLAG-tagged ZC3H15 (Zinc finger CCCH domain-containing protein 15), Q8WU90 1-426 (protein)
chain: T1 sequence
For B1, the binding [2] was “binds”.
